PubChem BioAssay AID256 (DTP/NCI, 2004)
The list is a part of this screen's results and no random one: it is rich in T/C values a quarter to a half above the control, in often repeated tests (any T/C) and in doses without a T/C. Further doses and runs are listed elsewhere. T/C gives the treated animals as a percentage of the vehicle group. Some doses have a count of surviving animals in place of a T/C: the source files T/C as zero there, which appears to mark a toxic dose or a test without result, not a measured value. Some doses without a T/C left all or most animals alive at the check, yet need not have been tolerated: the source hardly ever lists a survival T/C far under the control, and the zero likely stands for such cases as well. Survivors were counted at the toxicity check, usually on the fifth day, unless a day is given; later deaths do not show. Schedules are NCI's codes, read here as Q, the interval in days (D) or hours (H), X, the number of doses. For survival time, the PubChem record calls one and a half times the control and up active, and a quarter to a half above the control has no call in these data; cut-offs in other NCI protocols can differ. Some entries hold several experiments; the values are given in rising order.

System: CD2F1 mice, L1210 leukemia ip, survival T/C
Experiment: NCI In Vivo Anticancer Drug Screen. Data for tumor model L1210 Leukemia (intraperitoneal) in CD2F1 (CDF1) mice
Details: higher T/C = longer survival
Procedure, shortened: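 In this screen, transplantable tumors were grown in mice given either the compound or its vehicle. Results were expressed as the treated measurement relative to the control measurement.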

[1] = T/C endpoint: mean survival time, dose: 200.0 mg/kg/injection, schedule: Q04DX003 (ip), vehicle: saline with Tween-80
[2] = T/C endpoint: mean survival time, dose: 400.0 mg/kg/injection, schedule: Q04DX003 (ip), vehicle: saline with Tween-80
[3] = T/C endpoint: mean survival time, dose: 200.0 mg/kg/injection, schedule: Q01DX009 (ip), vehicle: saline with Tween-80
[4] = T/C endpoint: mean survival time, dose: 400.0 mg/kg/injection, schedule: Q01DX009 (ip), vehicle: saline with Tween-80

## Cc1ccc2c(c1Oc1ccc(S(N)(=O)=O)cc1)C(=O)c1ccccc1C2=O
T/C endpoint: mean survival time, dose: 50.0 mg/kg/injection, schedule: Q04DX003 (ip), vehicle: saline with Tween-80
  survivor count: 6 of 6
T/C endpoint: mean survival time, dose: 200.0 mg/kg/injection, schedule: Q04DX003 (ip), vehicle: saline sonified
  survivor count: 6 of 6
[1]
  survivor count: 6 of 6

## CC(=O)OCC1OC(c2nn(C(C)=O)c(C(N)=O)c2O)C(OC(C)=O)C1OC(C)=O (stereo not given)
T/C endpoint: median survival time, dose: 6.25 mg/kg/injection, schedule: Q01DX005 (ip), vehicle: saline
  T/C: 133 % of control
T/C endpoint: median survival time, dose: 12.5 mg/kg/injection, schedule: Q01DX005 (ip), vehicle: saline
  T/C: 137 % of control

## CCCCCCCCCCCCCCCCCCNC(=O)Nc1cccc(OC)c1
T/C endpoint: mean survival time, dose: 100.0 mg/kg/injection, schedule: Q04DX002 (ip), vehicle: saline with Tween-80
  survivor count: 3 of 3

## CCC[CH2][Sn]([CH2]CCC)([CH2]CCC)[CH2]CC(=O)OC
[2]
  survivor count: 4 of 6

## Brc1cccc(-n2ccnc2)c1
[2]
  survivor count: 3 of 6

## CC(=O)C(=O)Sc1ccccc1
T/C endpoint: mean survival time, dose: 100.0 mg/kg/injection, schedule: Q04DX002 (ip), vehicle: Klucel (hydroxypropylcellulose) (HPC)
  survivor count: 0 of 3
T/C endpoint: mean survival time, dose: 200.0 mg/kg/injection, schedule: Q04DX002 (ip), vehicle: Klucel (hydroxypropylcellulose) (HPC)
  survivor count: 0 of 3
T/C endpoint: mean survival time, dose: 400.0 mg/kg/injection, schedule: Q04DX002 (ip), vehicle: Klucel (hydroxypropylcellulose) (HPC)
  survivor count: 0 of 3

## CC(C)(CCl)C(=O)O
[2]
  survivor count: 3 of 6

## Cc1cccc2c1CCC(OC(=O)c1cc([N+](=O)[O-])cc([N+](=O)[O-])c1)C2 (stereo not given)
T/C endpoint: mean survival time, dose: 100.0 mg/kg/injection, schedule: Q04DX003 (ip), vehicle: saline with Tween-80
  survivor count: 6 of 6
[3]
  survivor count: 6 of 6
[2]
  survivor count: 6 of 6

## COc1ccc(NC(=O)NCCCl)cc1
T/C endpoint: mean survival time, dose: 400.0 mg/kg/injection, schedule: Q01DX001 (ip), vehicle: saline with Tween-80
  survivor count: 1 of 3

## C=CC[n+]1cccc2ccccc21
[1]
  survivor count: 0 of 6
[2]
  survivor count: 0 of 6

## COC12C(COC(N)=O)C3=C(C(=O)C(C)=C(N4CCN(C)CC4)C3=O)N1CC1NC12 (stereo not given)
T/C endpoint: median survival time, dose: 0.75 mg/kg/injection, schedule: Q01DX001 (ip), vehicle: water
  T/C: 135 % of control
T/C endpoint: median survival time, dose: 12.0 mg/kg/injection, schedule: Q01DX001 (ip), vehicle: water
  survivor count: 1 of 6

## CC(=O)NNC(=O)c1ccc(Br)cc1
[4]
  survivor count: 3 of 6

## OCC1=CCN(CCc2c[nH]c3ccccc23)CC1
[4]
  survivor count: 3 of 6

## CC(=O)NC(CCC(=O)C=[N+]=N)C(=O)O (stereo not given)
T/C endpoint: mean survival time, dose: 0.01 mg/kg/injection, schedule: Q03HX024 (ip), vehicle: saline
  survivor count: 10 of 10
T/C endpoint: mean survival time, dose: 0.03 mg/kg/injection, schedule: Q03HX024 (ip), vehicle: saline
  survivor count: 10 of 10
T/C endpoint: mean survival time, dose: 0.06 mg/kg/injection, schedule: Q03HX024 (ip), vehicle: saline
  survivor count: 10 of 10
T/C endpoint: mean survival time, dose: 0.2 mg/kg/injection, schedule: Q01DX009 (ip), vehicle: water
  T/C: 136 % of control
T/C endpoint: mean survival time, dose: 0.25 mg/kg/injection, schedule: Q03HX016 (ip), vehicle: saline
  T/C: 130 and 137 % of control
T/C endpoint: mean survival time, dose: 0.25 mg/kg/injection, schedule: Q03HX024 (ip), vehicle: saline
  T/C: 144 % of control
T/C endpoint: mean survival time, dose: 0.5 mg/kg/injection, schedule: Q01DX005 (iv), vehicle: saline
  T/C: 125 % of control
T/C endpoint: mean survival time, dose: 0.5 mg/kg/injection, schedule: Q01DX009 (ip), vehicle: saline
  T/C: 126 and 130 % of control
T/C endpoint: mean survival time, dose: 0.5 mg/kg/injection, schedule: Q01DX009 (oral), vehicle: saline
  T/C: 137 % of control
T/C endpoint: mean survival time, dose: 0.5 mg/kg/injection, schedule: Q03HX008 (ip), vehicle: saline
  T/C: 132 % of control
T/C endpoint: mean survival time, dose: 0.5 mg/kg/injection, schedule: Q03HX016 (ip), vehicle: saline
  T/C: 147 % of control
T/C endpoint: mean survival time, dose: 0.5 mg/kg/injection, schedule: Q03HX024 (ip), vehicle: saline
  T/C: 144 % of control
T/C endpoint: mean survival time, dose: 0.5 mg/kg/injection, schedule: Q06HX008 (ip), vehicle: saline
  T/C: 136 % of control
T/C endpoint: mean survival time, dose: 0.5 mg/kg/injection, schedule: Q06HX012 (ip), vehicle: saline
  T/C: 149 % of control
T/C endpoint: mean survival time, dose: 0.6 mg/kg/injection, schedule: Q01DX009 (ip), vehicle: water
  T/C: 125 % of control
T/C endpoint: mean survival time, dose: 1.0 mg/kg/injection, schedule: Q01DX005 (ip), vehicle: saline
  T/C: 130 % of control
T/C endpoint: mean survival time, dose: 1.0 mg/kg/injection, schedule: Q01DX005 (iv), vehicle: saline
  T/C: 131 and 136 % of control
T/C endpoint: mean survival time, dose: 1.0 mg/kg/injection, schedule: Q01DX009 (ip), vehicle: saline
  T/C: 133 % of control
T/C endpoint: mean survival time, dose: 1.0 mg/kg/injection, schedule: Q03HX008 (ip), vehicle: saline
  T/C: 139 % of control
T/C endpoint: mean survival time, dose: 1.0 mg/kg/injection, schedule: Q06HX008 (ip), vehicle: saline
  T/C: 143 % of control
T/C endpoint: mean survival time, dose: 2.0 mg/kg/injection, schedule: Q01DX005 (iv), vehicle: saline
  T/C: 139 % of control
T/C endpoint: mean survival time, dose: 2.0 mg/kg/injection, schedule: Q01DX009 (ip), vehicle: saline
  survivor count: 10 of 10
T/C endpoint: mean survival time, dose: 2.0 mg/kg/injection, schedule: Q03HX008 (ip), vehicle: saline
  T/C: 136 % of control
T/C endpoint: mean survival time, dose: 4.0 mg/kg/injection, schedule: Q01DX005 (iv), vehicle: saline
  survivor count: 9 of 10
T/C endpoint: mean survival time, dose: 4.0 mg/kg/injection, schedule: Q01DX009 (ip), vehicle: saline
  survivor count: 9 of 10
T/C endpoint: mean survival time, dose: 4.0 mg/kg/injection, schedule: Q04DX003 (ip), vehicle: saline
  T/C: 134 % of control
T/C endpoint: mean survival time, dose: 8.0 mg/kg/injection, schedule: Q01DX005 (ip), vehicle: saline
  survivor count: 2 of 10
T/C endpoint: mean survival time, dose: 8.0 mg/kg/injection, schedule: Q01DX009 (ip), vehicle: saline
  survivor count: 8 of 10
T/C endpoint: mean survival time, dose: 8.0 mg/kg/injection, schedule: Q04DX003 (ip), vehicle: saline
  T/C: 143 % of control
T/C endpoint: mean survival time, dose: 16.0 mg/kg/injection, schedule: Q01DX001 (ip), vehicle: saline
  T/C: 125 % of control
T/C endpoint: mean survival time, dose: 16.0 mg/kg/injection, schedule: Q01DX005 (ip), vehicle: saline
  survivor count: 4 of 10
T/C endpoint: mean survival time, dose: 16.0 mg/kg/injection, schedule: Q08DX002 (ip), vehicle: saline
  T/C: 137 % of control

## CC1CC2OC(=O)C(O)(CO)C2CC2(C)C(=O)C=CC12 (stereo not given)
T/C endpoint: mean survival time, dose: 100.0 mg/kg/injection, schedule: Q04DX002 (ip), vehicle: saline
  T/C: 135 % of control

## CCCCCCCCCCC(=O)N1CCOCC1
[3]
  survivor count: 1 of 6

## O.O.O.O.[Fe].[Fe].[Fe].[NH-]c1c(C(=O)O)ncn1C1[OH+]C(CO)C(O)C1O.[NH-]c1c(C(=O)O)ncn1C1[OH+]C(CO)C(O)C1O (stereo not given)
T/C endpoint: mean survival time, dose: 100.0 mg/kg/injection, schedule: Q01DX005 (ip), vehicle: distilled water + Tween-80
  survivor count: 6 of 6

## COc1ccc(Br)cc1C1OC(=O)c2c(OC)c(OC)cc([N+](=O)[O-])c21 (stereo not given)
[2]
  survivor count: 6 of 6

## c1ccc2c(c1)ccc1c[n+]3ccccc3cc12
T/C endpoint: mean survival time, dose: 2.5 mg/kg/injection, schedule: Q01DX009 (ip), vehicle: saline with Tween-80
  survivor count: 0 of 6
T/C endpoint: mean survival time, dose: 5.0 mg/kg/injection, schedule: Q01DX009 (ip), vehicle: saline with Tween-80
  survivor count: 0 of 6
T/C endpoint: mean survival time, dose: 10.0 mg/kg/injection, schedule: Q04DX003 (ip), vehicle: saline sonified
  survivor count: 0 of 6
T/C endpoint: mean survival time, dose: 20.0 mg/kg/injection, schedule: Q04DX003 (ip), vehicle: saline sonified
  survivor count: 0 of 6

## OCC1OC(c2[nH]nc3c([Se])ncnc23)C(O)C1O (stereo not given)
T/C endpoint: mean survival time, dose: 100.0 mg/kg/injection, schedule: Q01DX005 (ip), vehicle: saline
  survivor count: 0 of 6
T/C endpoint: mean survival time, dose: 200.0 mg/kg/injection, schedule: Q01DX005 (ip), vehicle: saline
  survivor count: 0 of 6

## NNc1ncccn1
T/C endpoint: mean survival time, dose: 75.0 mg/kg/injection, schedule: Q01DX001 (ip), vehicle: saline
  survivor count: 0 of 6
T/C endpoint: mean survival time, dose: 150.0 mg/kg/injection, schedule: Q01DX001 (ip), vehicle: saline
  survivor count: 0 of 6
T/C endpoint: mean survival time, dose: 300.0 mg/kg/injection, schedule: Q01DX001 (ip), vehicle: saline
  survivor count: 0 of 6

## Nc1ccc2c(Cl)cc(Cl)cc2c1
[2]
  survivor count: 0 of 6

## C/C=C1/CC2C=Nc3cc(O)c(OC)cc3C(=O)N2C1 (stereo not given)
T/C endpoint: median survival time, dose: 0.64 mg/kg/injection, schedule: Q01DX005 (ip), vehicle: DMSO
  T/C: 131 % of control

## CCc1ccc(-n2cnc3c(=O)[nH]c(N)nc32)cc1
T/C endpoint: mean survival time, dose: 200.0 mg/kg/injection, schedule: Q01DX001 (ip), vehicle: saline with Tween-80
  survivor count: 6 of 6
